At least one structure is not confirmed: it was looked up by name or label, or the drawing left a doubt. Ends that are not written are not given here.
System: prostaglandin E2 production in synovial cultures
Settings: histamine 100 μM or bradykinin 1 μM; overnight IL-1 (10 U/ml) priming

With RPPGFSPFR [Bradykinin] the “fold increase in PGE2 production compared to IL-1 primed cells receiving no GPCR agonist” value was 10–15 fold.
